At least one structure is not confirmed: it was looked up by name or label, or the drawing left a doubt.
Columns and labels:
[1] = tested on: MDA-tetR-ODC/LacZ flank tumors; experiment: induction of beta-galactosidase in MDA-tetR-ODC/LacZ flank tumors; type: in vivo, mice
MDA-tetR-ODC/LacZ cells = experiment: induction of lacZ reporter in MDA-tetR-ODC/LacZ cells, beta-galactosidase assay kit; type: cell-based; conditions: MDA-MB435SLM-derived clones, presence vs absence of doxycycline, 72 hours
[2] = tested on: MDA-tetR-ODC/lacZ-derived orthotopic liver tumors; experiment: induction of beta-galactosidase in MDA-tetR-ODC/LacZ orthotopic liver tumors, x-gal staining; type: in vivo, mice; conditions: intrahepatic injection of cells, doxycycline treatment

With C[C@H]1c2cccc(O)c2C(=O)C2=C(O)[C@]3(O)C(=O)C(C(N)=O)=C(O)[C@@H](N(C)C)[C@@H]3[C@@H](O)[C@@H]21 [doxycycline] the “beta-galactosidase expression in tumor sections, immunohistochemistry” value ([1]; doxycycline-treated mice) was “higher levels of beta-galactosidase expression in the entire section”, the “beta-galactosidase activity in tumor lysate” value ([1]; mice fed with doxycycline for 5 days, confirmed by whole-mount X-gal staining) was “apparent increase of beta-galactosidase activity” and the “induction of beta-galactosidase activity” value (MDA-tetR-ODC/LacZ cells) was “robust induction of beta-galactosidase activity”. The “response of orthotopic liver tumors (beta-galactosidase, X-gal staining)” value [2] was “robust responses”.
